Measurements from patent CN117624352A.
These are yes or no findings as the source states them, for the method shown. Some results given as binding are weak or reduced against the parent protein; the word gives no strength. Tags and fused reporters may be left off the sequences shown.

Target: T1, Tmem176b表达纯化抗原142-196aa xy02b-hFc-6His(Abclonal) (mouse) (UniProt Q9R1Q6)
T1 sequence (looked up): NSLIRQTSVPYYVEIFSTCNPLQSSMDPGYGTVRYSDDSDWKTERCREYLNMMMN
Test: Capture ELISA

- binding: binds
B1: Tmem176b单克隆抗体6E8 (antibody, V domains shown)
VH: QSVEESGGRLLKPDETLTLTCTVSGFSLSSYAMSWVRQAPGKGLEWIGIISIRGNTYYASWAKGRFTISKTSTTVDLKITSPTTEDTATYFCARNTLYSSGWGGSDLWGQGTLVTVSS
VL: AQVLTQTPSPVSAAVGGTVTINCQASQSVYNNNNLAWYQQKPGQPPKLLIYYASTLASGVSSRFKGSGSGTQFTLTISGVQCDDAATYYCQGEFSCSSADCNAFGGGTEVVVKG
